{"source": "PubChem BioAssay AID1259308 – NCATS | 2017", "assay": "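Candidate targets for better recombinant protein yield in mammalian cells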 (primary screen)", "cells": "human HEK293 embryonic kidney cells stably expressing firefly luciferase (HEK-CMV-Luc2-Hygro)", "reagents": "single siRNA against human genes, 0.8 pmol siRNA per well", "time to read-out": "72 h", "read-out": "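Luciferase light (ONE-Glo) measured on one replicate plate set and viability (CellTiter-Glo) on the other, scaled to a negative control siRNA, with robust z-scores and luciferase per cell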", "direction": "total luciferase, z-score: higher = more reporter protein produced", "call rule": "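An siRNA counts as active if its total luciferase robust z-score exceeds 3; genes with two or more such siRNAs out of three were retested with fresh siRNAs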", "calls": "active = raised luciferase; inactive = no rise", "note": "Here is an unselected part of about 59,000 reagents tested. About 1,510 of them (2.6%) count as active. 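Calls use total luciferase alone and ignore viability, so some active siRNAs may act by altering cell number.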 Unmarked entries are inactive. Not all columns of the deposit are shown."}
{"target gene":"BLTP2","PubChem SID":"SID160722854","total luciferase, z-score":-0.138}
{"target gene":"BLTP2","PubChem SID":"SID160722855","total luciferase, z-score":0.497}
{"target gene":"BLTP2","PubChem SID":"SID160722856","total luciferase, z-score":0.298}
{"target gene":"WDR82P1","PubChem SID":"SID160771854","total luciferase, z-score":-0.267}
{"target gene":"WDR82P1","PubChem SID":"SID160771855","total luciferase, z-score":-0.239}
{"target gene":"WDR82P1","PubChem SID":"SID160771856","total luciferase, z-score":-0.713}
{"target gene":"PIK3R4","PubChem SID":"SID160714102","total luciferase, z-score":-0.123}
{"target gene":"PIK3R4","PubChem SID":"SID160714208","total luciferase, z-score":"3.15 (active)"}
{"target gene":"PIK3R4","PubChem SID":"SID160714313","total luciferase, z-score":-1.37}
{"target gene":"TRIM62","PubChem SID":"SID160743272","total luciferase, z-score":-2.98}
{"target gene":"TRIM62","PubChem SID":"SID160743273","total luciferase, z-score":0.0163}
{"target gene":"TRIM62","PubChem SID":"SID160743274","total luciferase, z-score":0.0779}

Looked up above:
Result of BLTP2 [SID160722854] in “total luciferase, z-score”: -0.138
Result of WDR82P1 [SID160771854] in “total luciferase, z-score”: -0.267
